This is one part of the list.
compound: C[C@H](Nc1ncnc2nc[nH]c12)c1cc2cccc(Cl)c2c(=O)n1-c1ccccc1 [duvelisib]; assay: log2 fold change, soluble protein after heating vs DMSO (PISA); higher = thermal stabilisation; K562 lysate, 10 uM; active = over 0.2 and 3.5 SD of the protein, either way, in both replicates (recomputed)
Summary of the method: (§1)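 K562 pellets were dounce-homogenised in PBS pH 7.4 with 1 mM MgCl2, and the crude extract at 1 mg/mL protein was treated with 10 μM compound for 30 min. Aliquots were heated for 3 min across 48°C-58°C, pooled, and brought to 0.5% NP-40 at 4°C; soluble protein was the supernatant after 21,000xg for 90 min. Soluble protein was quantified by TMTpro 16plex LC-MS/MS with channel sums equalised, and reported as log2 fold change in thermal stability against DMSO controls, with values from duplicates.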

By UniProt entry, the sequences of proteins in these tests, tags left out. Where a name states a change or a piece, a line headed by the entry shows the natural chain unless it says otherwise.
UniProt Q2KHT3: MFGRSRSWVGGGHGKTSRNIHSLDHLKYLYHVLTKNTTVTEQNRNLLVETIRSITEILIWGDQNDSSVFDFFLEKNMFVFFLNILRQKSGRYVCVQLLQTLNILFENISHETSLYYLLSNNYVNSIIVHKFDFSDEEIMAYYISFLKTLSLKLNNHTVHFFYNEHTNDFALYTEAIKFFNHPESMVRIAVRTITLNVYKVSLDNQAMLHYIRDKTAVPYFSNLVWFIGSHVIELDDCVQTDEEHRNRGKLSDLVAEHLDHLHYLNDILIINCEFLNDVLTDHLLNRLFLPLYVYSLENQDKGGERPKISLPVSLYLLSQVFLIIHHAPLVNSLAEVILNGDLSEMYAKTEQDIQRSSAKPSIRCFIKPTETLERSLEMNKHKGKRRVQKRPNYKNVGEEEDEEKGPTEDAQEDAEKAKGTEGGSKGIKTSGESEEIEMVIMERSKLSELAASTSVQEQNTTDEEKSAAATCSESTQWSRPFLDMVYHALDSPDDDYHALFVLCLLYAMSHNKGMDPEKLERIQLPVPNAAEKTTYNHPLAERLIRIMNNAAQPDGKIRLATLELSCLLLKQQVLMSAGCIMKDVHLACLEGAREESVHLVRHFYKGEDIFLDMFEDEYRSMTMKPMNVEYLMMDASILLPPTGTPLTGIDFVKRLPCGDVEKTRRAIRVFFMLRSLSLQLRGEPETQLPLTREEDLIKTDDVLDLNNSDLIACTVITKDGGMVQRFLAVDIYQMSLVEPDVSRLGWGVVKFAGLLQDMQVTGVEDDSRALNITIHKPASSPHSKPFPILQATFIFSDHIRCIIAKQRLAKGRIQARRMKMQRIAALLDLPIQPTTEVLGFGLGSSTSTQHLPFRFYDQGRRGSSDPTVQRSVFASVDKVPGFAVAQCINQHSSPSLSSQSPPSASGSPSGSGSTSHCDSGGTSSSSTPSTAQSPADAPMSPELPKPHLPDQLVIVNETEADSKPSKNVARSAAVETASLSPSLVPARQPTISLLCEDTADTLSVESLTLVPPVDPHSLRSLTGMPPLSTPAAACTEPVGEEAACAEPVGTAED
UniProt O96005: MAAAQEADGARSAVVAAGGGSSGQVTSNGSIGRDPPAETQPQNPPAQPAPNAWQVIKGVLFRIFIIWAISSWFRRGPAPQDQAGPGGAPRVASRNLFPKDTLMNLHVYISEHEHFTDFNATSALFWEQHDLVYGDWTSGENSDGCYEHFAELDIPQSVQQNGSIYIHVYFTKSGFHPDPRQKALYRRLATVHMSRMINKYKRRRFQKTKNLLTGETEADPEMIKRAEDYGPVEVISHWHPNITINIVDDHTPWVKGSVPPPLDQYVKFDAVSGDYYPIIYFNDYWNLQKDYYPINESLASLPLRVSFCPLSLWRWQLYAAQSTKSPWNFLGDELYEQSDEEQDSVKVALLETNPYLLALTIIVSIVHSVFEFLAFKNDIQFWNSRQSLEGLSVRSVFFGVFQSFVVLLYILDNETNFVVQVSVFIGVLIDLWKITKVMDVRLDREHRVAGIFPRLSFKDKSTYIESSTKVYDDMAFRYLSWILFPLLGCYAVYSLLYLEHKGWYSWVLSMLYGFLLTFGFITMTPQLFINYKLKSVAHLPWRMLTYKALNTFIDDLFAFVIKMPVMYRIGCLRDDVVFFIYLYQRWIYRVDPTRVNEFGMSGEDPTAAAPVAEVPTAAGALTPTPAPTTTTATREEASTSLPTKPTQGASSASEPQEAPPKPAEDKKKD
UniProt Q16740, whole entry, looked up: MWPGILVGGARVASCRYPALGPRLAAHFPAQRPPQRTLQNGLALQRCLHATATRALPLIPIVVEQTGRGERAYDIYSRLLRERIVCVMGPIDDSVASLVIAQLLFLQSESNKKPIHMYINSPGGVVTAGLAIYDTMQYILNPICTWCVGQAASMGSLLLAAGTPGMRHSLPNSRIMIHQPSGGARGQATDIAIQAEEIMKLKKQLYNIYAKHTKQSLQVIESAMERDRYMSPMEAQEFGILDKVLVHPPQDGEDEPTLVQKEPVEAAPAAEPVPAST
UniProt P0C7P0: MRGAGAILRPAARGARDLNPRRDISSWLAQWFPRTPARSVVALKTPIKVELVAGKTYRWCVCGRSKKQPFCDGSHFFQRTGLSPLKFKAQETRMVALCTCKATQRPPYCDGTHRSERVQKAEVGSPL
UniProt Q96S66: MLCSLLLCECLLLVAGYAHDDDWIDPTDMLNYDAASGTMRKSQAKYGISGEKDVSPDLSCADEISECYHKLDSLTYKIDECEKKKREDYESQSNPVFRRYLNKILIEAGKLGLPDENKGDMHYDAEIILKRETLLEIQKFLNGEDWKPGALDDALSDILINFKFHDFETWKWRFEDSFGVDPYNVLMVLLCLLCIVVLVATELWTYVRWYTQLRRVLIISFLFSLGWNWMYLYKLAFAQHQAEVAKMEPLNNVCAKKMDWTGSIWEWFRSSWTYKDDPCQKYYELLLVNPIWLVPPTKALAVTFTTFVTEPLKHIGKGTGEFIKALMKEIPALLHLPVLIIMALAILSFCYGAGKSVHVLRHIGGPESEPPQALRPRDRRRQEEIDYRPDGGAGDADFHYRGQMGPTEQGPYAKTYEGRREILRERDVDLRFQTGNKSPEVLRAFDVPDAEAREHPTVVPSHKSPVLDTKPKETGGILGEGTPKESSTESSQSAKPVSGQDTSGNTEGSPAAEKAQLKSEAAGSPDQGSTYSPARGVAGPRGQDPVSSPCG
UniProt O14967: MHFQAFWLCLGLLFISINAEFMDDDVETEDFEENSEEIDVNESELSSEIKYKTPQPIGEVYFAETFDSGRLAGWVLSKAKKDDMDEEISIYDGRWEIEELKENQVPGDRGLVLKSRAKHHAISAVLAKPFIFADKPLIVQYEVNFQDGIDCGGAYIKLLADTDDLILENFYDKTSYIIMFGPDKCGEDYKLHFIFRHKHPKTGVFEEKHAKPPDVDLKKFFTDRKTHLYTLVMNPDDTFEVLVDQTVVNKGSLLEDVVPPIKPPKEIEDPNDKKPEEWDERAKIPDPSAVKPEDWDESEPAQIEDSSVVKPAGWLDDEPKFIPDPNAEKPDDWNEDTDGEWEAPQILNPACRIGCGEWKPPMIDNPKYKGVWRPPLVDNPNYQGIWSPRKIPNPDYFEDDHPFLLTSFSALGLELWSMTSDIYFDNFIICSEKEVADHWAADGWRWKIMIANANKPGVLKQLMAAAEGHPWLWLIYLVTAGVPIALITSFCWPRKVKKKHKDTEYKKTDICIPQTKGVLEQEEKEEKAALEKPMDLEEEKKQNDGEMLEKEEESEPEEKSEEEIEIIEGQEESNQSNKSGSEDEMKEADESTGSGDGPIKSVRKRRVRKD
UniProt Q9NY35: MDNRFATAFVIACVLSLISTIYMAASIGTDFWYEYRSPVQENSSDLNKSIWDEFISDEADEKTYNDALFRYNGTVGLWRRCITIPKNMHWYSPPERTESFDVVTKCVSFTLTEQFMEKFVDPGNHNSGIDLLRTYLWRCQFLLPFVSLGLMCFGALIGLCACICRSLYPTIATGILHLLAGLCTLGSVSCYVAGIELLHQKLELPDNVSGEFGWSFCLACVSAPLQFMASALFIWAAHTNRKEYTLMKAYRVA
UniProt P09497: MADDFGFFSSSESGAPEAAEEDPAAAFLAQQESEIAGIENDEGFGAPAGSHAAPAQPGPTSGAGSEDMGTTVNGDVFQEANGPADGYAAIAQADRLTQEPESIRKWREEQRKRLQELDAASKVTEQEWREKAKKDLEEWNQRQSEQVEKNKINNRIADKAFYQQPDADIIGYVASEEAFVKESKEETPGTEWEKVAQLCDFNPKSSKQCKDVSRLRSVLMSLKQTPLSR
UniProt Q9UBR5: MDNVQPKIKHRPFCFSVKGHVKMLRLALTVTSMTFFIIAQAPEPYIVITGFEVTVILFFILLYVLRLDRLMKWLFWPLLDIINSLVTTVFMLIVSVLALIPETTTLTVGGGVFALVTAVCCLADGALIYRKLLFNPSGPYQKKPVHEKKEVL
UniProt Q9HAW4: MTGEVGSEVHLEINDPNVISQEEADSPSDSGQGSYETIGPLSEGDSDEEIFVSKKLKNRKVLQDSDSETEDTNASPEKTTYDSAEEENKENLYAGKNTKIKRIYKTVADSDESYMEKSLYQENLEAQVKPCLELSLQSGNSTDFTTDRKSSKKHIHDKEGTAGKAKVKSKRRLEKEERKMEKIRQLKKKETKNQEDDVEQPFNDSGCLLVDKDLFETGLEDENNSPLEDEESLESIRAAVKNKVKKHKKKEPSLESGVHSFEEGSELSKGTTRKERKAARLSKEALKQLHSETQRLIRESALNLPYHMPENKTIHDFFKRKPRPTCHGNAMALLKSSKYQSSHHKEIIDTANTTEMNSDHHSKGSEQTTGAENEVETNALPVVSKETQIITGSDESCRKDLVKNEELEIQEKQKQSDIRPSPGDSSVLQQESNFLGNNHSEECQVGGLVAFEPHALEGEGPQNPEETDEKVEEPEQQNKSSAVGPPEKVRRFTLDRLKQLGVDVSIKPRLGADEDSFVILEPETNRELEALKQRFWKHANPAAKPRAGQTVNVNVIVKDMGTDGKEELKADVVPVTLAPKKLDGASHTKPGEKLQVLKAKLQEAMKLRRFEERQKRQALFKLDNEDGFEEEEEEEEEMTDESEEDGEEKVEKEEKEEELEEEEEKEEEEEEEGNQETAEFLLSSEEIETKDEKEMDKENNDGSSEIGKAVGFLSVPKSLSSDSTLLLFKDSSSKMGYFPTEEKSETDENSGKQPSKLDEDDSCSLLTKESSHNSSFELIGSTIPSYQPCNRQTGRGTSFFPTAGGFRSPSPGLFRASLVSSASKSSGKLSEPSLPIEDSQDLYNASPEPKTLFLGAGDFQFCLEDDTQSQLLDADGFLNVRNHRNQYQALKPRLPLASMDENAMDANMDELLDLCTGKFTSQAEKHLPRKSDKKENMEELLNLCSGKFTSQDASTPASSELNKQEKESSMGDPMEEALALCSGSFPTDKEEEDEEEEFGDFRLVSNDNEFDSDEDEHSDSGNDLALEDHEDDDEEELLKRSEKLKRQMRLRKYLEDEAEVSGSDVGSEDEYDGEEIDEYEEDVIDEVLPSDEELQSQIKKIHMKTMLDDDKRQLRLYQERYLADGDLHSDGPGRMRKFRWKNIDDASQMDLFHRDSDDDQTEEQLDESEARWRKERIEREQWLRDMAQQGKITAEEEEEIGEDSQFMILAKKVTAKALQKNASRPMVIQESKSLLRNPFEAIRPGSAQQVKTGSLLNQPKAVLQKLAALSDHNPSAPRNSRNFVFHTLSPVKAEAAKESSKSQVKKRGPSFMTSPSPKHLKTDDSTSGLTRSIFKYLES
UniProt O75122: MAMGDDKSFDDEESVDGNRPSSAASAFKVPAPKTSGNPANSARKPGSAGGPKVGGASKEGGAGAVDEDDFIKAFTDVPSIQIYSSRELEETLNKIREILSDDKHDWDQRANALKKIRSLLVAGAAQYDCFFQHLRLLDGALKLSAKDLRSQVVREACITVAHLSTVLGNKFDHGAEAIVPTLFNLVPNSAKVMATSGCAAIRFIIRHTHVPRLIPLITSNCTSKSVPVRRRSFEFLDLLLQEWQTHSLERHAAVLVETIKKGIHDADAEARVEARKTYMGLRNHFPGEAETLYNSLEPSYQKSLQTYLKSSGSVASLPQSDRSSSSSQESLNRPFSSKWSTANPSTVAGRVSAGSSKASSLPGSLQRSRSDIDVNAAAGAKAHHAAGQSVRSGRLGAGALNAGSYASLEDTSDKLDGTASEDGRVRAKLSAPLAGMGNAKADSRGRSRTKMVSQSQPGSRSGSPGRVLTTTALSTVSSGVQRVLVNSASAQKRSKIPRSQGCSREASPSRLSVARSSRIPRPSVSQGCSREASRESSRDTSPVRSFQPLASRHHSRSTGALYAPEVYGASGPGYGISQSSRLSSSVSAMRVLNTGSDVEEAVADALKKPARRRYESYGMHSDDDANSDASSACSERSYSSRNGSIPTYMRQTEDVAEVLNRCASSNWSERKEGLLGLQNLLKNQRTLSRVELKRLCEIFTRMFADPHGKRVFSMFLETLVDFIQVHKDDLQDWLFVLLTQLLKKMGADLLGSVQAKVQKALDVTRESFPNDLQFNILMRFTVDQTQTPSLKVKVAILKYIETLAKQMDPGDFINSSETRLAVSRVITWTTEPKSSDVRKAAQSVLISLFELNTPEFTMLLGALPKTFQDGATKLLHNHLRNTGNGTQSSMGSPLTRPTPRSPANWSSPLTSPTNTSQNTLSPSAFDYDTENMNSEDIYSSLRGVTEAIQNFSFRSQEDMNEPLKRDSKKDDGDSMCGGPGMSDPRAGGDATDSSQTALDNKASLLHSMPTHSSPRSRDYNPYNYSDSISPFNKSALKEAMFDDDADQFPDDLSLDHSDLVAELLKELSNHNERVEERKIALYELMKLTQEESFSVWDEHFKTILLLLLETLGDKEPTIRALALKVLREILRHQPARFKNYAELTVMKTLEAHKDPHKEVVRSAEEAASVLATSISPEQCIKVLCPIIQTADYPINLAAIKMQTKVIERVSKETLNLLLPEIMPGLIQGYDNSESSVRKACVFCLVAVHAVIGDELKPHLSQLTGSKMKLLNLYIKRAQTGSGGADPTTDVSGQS

| Target | log2 fold change |
| --- | --- |
| CLEC16A (UniProt Q2KHT3) | inactive: -0.008 |
| CHFR (UniProt Q96EP1) | inactive: 0.023 |
| CLCN2 (UniProt P51788) | inactive: -0.015 |
| CLPTM1 (UniProt O96005) | inactive: -0.038 |
| CLPP (UniProt Q16740) | inactive: -0.005 |
| CISD3 (UniProt P0C7P0) | inactive: 0.042 |

compound: Cc1cc(Nc2cc(CN3CCOCC3)c3nc(C)c(Cc4ccc(Cl)cc4F)n3n2)n[nH]1 [gandotinib]; assay: as above
Summary of the method: as §1

| Target | log2 fold change |
| --- | --- |
| CLNS1A (UniProt P54105) | inactive: 0.056 |
| CLYBL (UniProt Q8N0X4) | inactive: 0.001 |
| CLASRP (UniProt Q8N2M8) | inactive: 0.044 |
| CLCC1 (UniProt Q96S66) | inactive: 0.063 |
| CLGN (UniProt O14967) | inactive: 0.052 |
| CLDND1 (UniProt Q9NY35) | inactive: 0.009 |
| CLUAP1 (UniProt Q96AJ1) | inactive: 0.098 |
| CLIC6 (UniProt Q96NY7) | inactive: 0.094 |
| CMTM4 (UniProt Q8IZR5) | inactive: 0.037 |
| CLPTM1L (UniProt Q96KA5) | active: -0.233 |
| CLTA (UniProt P09496) | inactive: 0.011 |
| CLDN12 (UniProt P56749) | inactive: -0.007 |
| CLUH (UniProt O75153) | inactive: 0.004 |
| CLIP4 (UniProt Q8N3C7) | inactive: 0.051 |
| CLTB isoform 2 (UniProt P09497) | inactive: 0.023 |
| CKLF (UniProt Q9UBR5) | inactive: -0.09 |
| CLCN3 (UniProt P51790) | inactive: -0.106 |
| CLSPN (UniProt Q9HAW4) | inactive: 0.146 |
| CLPX (UniProt O76031) | inactive: -0.074 |
| CLCN3 isoform 2 (UniProt P51790) | inactive: -0.018 |
| CLIC4 (UniProt Q9Y696) | inactive: 0.05 |
| CLPB isoform 2 (UniProt Q9H078) | inactive: -0.093 |
| CLEC16A (UniProt Q2KHT3) | inactive: -0.046 |
| CLCN2 (UniProt P51788) | inactive: 0.081 |
| CLASP2 (UniProt O75122) | inactive: -0.031 |
| CLPTM1 (UniProt O96005) | inactive: 0.033 |
| CLPP (UniProt Q16740) | inactive: -0.061 |
| CLSTN1 (UniProt O94985) | inactive: 0.307 |
| CISD3 (UniProt P0C7P0) | inactive: 0.055 |

— the supplement of paper PMC10849652
